Record: PubChem BioAssay AID1259308 (NCATS, 2017)

- Assay: 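Knock-downs that increase output of a recombinant reporter protein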 (primary screen)
- Cells: human HEK293 embryonic kidney cells stably expressing firefly luciferase (HEK-CMV-Luc2-Hygro)
- Reagent: single siRNA against human genes, 0.8 pmol siRNA per well
- Timing: 72 h
- Measured: 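Luciferase light (ONE-Glo) measured on one replicate plate set and viability (CellTiter-Glo) on the other, scaled to a negative control siRNA, with robust z-scores and luciferase per cell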
- Reading the numbers: total luciferase, z-score and total luciferase, % of control: higher = more reporter protein produced; luciferase per cell, z-score: higher = more reporter output per viable cell; viable cells, % of control: higher = more viable cells
- Call rule: 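Active when the median/MAD z-score for overall luciferase is greater than 3; a gene was taken forward for validation with new siRNAs if at least two of its three siRNAs passed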
- Calls: active = raised luciferase; inactive = no rise
Here is one part, drawn at random, of about 59,000 reagents tested. About 1,510 of them (2.6%) were called active. 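Calls use total luciferase alone and ignore viability, so some active siRNAs may act by altering cell number.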 Entries without a mark were called inactive. The numbers tell different reagents against one gene apart.

no.	gene	siRNA no.	total luciferase, z-score	total luciferase, % of control	luciferase per cell, z-score	viable cells, % of control
1	FAIM2 (Fas apoptotic inhibitory molecule 2)	1	0.0597	83.1	-0.313	101
2	FAIM2 (Fas apoptotic inhibitory molecule 2)	2	-1.04	61.2	-1.75	108
3	FAIM2 (Fas apoptotic inhibitory molecule 2)	3	0.786	97.5	1.48	73.9
4	EPPIN (epididymal peptidase inhibitor)	1	0.802	97.8	0.0817	107
5	EPPIN (epididymal peptidase inhibitor)	2	0.0351	82.6	-0.525	106
6	EPPIN (epididymal peptidase inhibitor)	3	-1.08	60.4	-0.149	70.2
7	PKD1L1-AS1 (PKD1L1 antisense RNA 1)	1	0.53	92.4	0.799	83.7
8	PKD1L1-AS1 (PKD1L1 antisense RNA 1)	2	1.15	105	0.682	97.8
9	PKD1L1-AS1 (PKD1L1 antisense RNA 1)	3	0.331	88.5	0.492	86.9
10	MAPK12 (mitogen-activated protein kinase 12)	1	-0.0995	79.9	0.24	83.8
11	MAPK12 (mitogen-activated protein kinase 12)	2	-0.0993	79.9	-0.366	98.3
12	MAPK12 (mitogen-activated protein kinase 12)	3	-0.434	73.3	0.594	70
13	OLFML2A (olfactomedin like 2A)	1	-0.307	75.8	-0.215	89.6
14	OLFML2A (olfactomedin like 2A)	2	-2.08	40.5	-1.79	72.6
15	OLFML2A (olfactomedin like 2A)	3	1.22	106	0.607	101
16	PRKACB (protein kinase cAMP-activated catalytic subunit beta)	1	0.0262	82.4	-0.575	107
17	PRKACB (protein kinase cAMP-activated catalytic subunit beta)	2	-0.175	78.4	-0.833	109
18	PRKACB (protein kinase cAMP-activated catalytic subunit beta)	3	-1.07	60.5	-1.78	108
19	PLAC9P1 (placenta associated 9 pseudogene 1)	1	-0.651	68.9	-0.483	87.5
20	PLAC9P1 (placenta associated 9 pseudogene 1)	2	-1.2	57.9	-0.52	74.3
21	PLAC9P1 (placenta associated 9 pseudogene 1)	3	-0.584	70.3	-0.248	83.8
22	ZNF285 (zinc finger protein 285)	1	1.72	116	0.285	120
23	ZNF285 (zinc finger protein 285)	2	0.157	85	0.187	90.4
24	ZNF285 (zinc finger protein 285)	3	0.932	100	0.974	86.9
25	SCN3A (sodium voltage-gated channel alpha subunit 3)	1	-0.175	78.4	0.403	78.8
26	SCN3A (sodium voltage-gated channel alpha subunit 3)	2	-0.236	77.2	-1.11	115
27	SCN3A (sodium voltage-gated channel alpha subunit 3)	3	-0.444	73.1	-1.34	116
28	TOM1 (target of myb1 membrane trafficking protein)	1	-0.00779	81.7	-0.414	102
29	TOM1 (target of myb1 membrane trafficking protein)	2	1.3	108	0.156	116
30	TOM1 (target of myb1 membrane trafficking protein)	3	-0.342	75.1	-0.819	104
31	BMP8B (bone morphogenetic protein 8b)	1	3.09 (active)	143	2.32	86.9
32	BMP8B (bone morphogenetic protein 8b)	2	-0.807	65.8	-0.835	91.6
33	BMP8B (bone morphogenetic protein 8b)	3	-0.701	67.9	0.1	73.9
34	GLYATL2 (glycine-N-acyltransferase like 2)	1	-0.935	63.3	-0.688	84.8
35	GLYATL2 (glycine-N-acyltransferase like 2)	2	0.144	84.8	0.616	80.5
36	GLYATL2 (glycine-N-acyltransferase like 2)	3	-0.577	70.4	0.114	76.4
37	GML (glycosylphosphatidylinositol anchored molecule like)	1	0.504	91.9	0.109	99.8
38	GML (glycosylphosphatidylinositol anchored molecule like)	2	-0.292	76.1	0.531	73.9
39	GML (glycosylphosphatidylinositol anchored molecule like)	3	-0.0434	81	0.0201	90.1
40	POM121 (POM121 transmembrane nucleoporin)	1	0.872	99.2	0.567	95.5
41	POM121 (POM121 transmembrane nucleoporin)	2	-2.29	36.4	-3.7	108
42	POM121 (POM121 transmembrane nucleoporin)	3	1.76	117	1.18	95.7
43	HDC (histidine decarboxylase)	1	-1.01	61.9	-0.512	79.1
44	HDC (histidine decarboxylase)	2	-1.26	56.8	-1.32	89.9
45	HDC (histidine decarboxylase)	3	0.624	94.3	-0.0127	106
46	KRI1 (KRI1 homolog)	1	-0.644	69.1	-0.804	95.4
47	KRI1 (KRI1 homolog)	2	1.72	116	1.03	99
48	KRI1 (KRI1 homolog)	3	-0.164	78.6	-0.892	111
49	LOC643441	1	0.395	89.8	-0.198	106
50	LOC643441	2	1.6	114	1.9	76.9
51	LOC643441	3	-0.191	78.1	-0.469	98.7
52	DPH5 (diphthamide biosynthesis 5)	1	-0.773	66.5	-1.29	104
53	DPH5 (diphthamide biosynthesis 5)	2	-0.442	73.1	-1.21	112
54	DPH5 (diphthamide biosynthesis 5)	3	-1.68	48.4	-1.25	75.2
55	DIP2A (DIP2 acetate--CoA ligase A)	1	-1.15	59	-1.35	94.3
56	DIP2A (DIP2 acetate--CoA ligase A)	2	-0.641	69.1	0.0605	76
57	DIP2A (DIP2 acetate--CoA ligase A)	3	0.5	91.8	0.37	93.1

In a second layout: results already given
| gene | siRNA no. | total luciferase, z-score | total luciferase, % of control | luciferase per cell, z-score | viable cells, % of control |
| --- | --- | --- | --- | --- | --- |
| SCN3A (sodium voltage-gated channel alpha subunit 3) | 2 | -0.236 | 77.2 | -1.11 | 115 |
| SCN3A (sodium voltage-gated channel alpha subunit 3) | 3 | -0.444 | 73.1 | -1.34 | 116 |
| TOM1 (target of myb1 membrane trafficking protein) | 1 | -0.00779 | 81.7 | -0.414 | 102 |
| TOM1 (target of myb1 membrane trafficking protein) | 2 | 1.3 | 108 | 0.156 | 116 |
| TOM1 (target of myb1 membrane trafficking protein) | 3 | -0.342 | 75.1 | -0.819 | 104 |
| BMP8B (bone morphogenetic protein 8b) | 1 | 3.09 (active) | 143 | 2.32 | 86.9 |
| BMP8B (bone morphogenetic protein 8b) | 2 | -0.807 | 65.8 | -0.835 | 91.6 |
